The list shows a part of the results. Residues, ends and D or L forms follow the SMILES beside them. *: point of attachment. Cbz = O=C(OCc1ccccc1)*
What was measured:
Experiment in all cases: log2 fold change, soluble protein after heating vs DMSO (PISA); higher = thermal stabilisation; K562 cells, 10 uM, 30 min; active = over 0.2 and 3.5 SD of the protein, either way, in both replicates (recomputed)
erlotinib = compound: C#Cc1cccc(Nc2ncnc3cc(OCCOC)c(OCCOC)cc23)c1 [erlotinib]
Procedure, shortened: (§1)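 Quantification of soluble protein used TMTpro 16plex LC-MS/MS, with channel sums equalised. Samples were the supernatant after 21,000xg for 90 min of pooled aliquots from K562 cells (2×10^6 cells/mL) treated with 10 μM compound for 30 min, heated for 3 min over 48°C-58°C, and extracted in PBS with 0.5% NP-40 at 4°C. Values, from duplicates, describe thermal stability against control samples on a log2 fold-change scale.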

Sequences of proteins named here, by UniProt entry; tags and fusion partners are left off. A change or cut given only in a name is not applied to a line headed by its entry.
UniProt P07711: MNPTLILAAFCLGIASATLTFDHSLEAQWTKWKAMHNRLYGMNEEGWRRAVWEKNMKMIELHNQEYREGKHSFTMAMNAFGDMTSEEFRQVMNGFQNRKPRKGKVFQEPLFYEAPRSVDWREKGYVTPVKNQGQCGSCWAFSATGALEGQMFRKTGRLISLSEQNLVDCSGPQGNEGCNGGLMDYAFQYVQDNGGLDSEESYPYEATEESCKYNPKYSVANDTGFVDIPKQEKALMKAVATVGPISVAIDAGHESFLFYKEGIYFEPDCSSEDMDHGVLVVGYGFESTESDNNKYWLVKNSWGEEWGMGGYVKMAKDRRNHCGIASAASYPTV
UniProt Q93034, whole entry, looked up: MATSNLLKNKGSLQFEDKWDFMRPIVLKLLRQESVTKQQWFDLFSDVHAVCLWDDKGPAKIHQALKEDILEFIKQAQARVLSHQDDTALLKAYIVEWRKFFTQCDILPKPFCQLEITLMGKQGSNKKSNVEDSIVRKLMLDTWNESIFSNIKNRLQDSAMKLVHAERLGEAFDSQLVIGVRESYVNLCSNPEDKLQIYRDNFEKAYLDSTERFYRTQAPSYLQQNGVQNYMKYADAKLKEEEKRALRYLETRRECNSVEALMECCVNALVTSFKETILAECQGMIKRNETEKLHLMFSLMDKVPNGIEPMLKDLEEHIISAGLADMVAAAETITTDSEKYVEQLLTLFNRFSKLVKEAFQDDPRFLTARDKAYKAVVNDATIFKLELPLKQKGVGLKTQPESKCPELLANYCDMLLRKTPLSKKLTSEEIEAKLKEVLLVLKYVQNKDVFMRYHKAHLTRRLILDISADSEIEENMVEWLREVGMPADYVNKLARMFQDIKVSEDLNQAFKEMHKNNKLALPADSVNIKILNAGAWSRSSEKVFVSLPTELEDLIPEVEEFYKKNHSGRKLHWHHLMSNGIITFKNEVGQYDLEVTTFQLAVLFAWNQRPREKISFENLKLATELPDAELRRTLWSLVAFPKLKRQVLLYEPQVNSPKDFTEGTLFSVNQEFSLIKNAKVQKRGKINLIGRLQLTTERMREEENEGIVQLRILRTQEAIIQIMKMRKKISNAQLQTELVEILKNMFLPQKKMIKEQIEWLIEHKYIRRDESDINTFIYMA
UniProt Q14247: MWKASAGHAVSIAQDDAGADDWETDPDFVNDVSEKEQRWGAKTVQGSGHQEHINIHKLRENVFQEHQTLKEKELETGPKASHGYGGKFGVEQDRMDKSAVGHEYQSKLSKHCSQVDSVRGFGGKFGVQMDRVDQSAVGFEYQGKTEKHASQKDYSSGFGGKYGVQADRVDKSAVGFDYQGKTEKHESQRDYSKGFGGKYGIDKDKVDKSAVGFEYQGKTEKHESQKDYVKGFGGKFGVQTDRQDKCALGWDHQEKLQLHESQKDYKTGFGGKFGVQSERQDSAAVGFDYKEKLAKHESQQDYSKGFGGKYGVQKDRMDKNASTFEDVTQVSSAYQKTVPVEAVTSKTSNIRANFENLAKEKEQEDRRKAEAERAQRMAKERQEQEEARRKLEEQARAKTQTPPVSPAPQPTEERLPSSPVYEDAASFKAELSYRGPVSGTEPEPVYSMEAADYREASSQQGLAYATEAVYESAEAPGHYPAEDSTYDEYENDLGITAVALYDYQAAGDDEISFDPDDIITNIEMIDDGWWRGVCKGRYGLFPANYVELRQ
UniProt P08574: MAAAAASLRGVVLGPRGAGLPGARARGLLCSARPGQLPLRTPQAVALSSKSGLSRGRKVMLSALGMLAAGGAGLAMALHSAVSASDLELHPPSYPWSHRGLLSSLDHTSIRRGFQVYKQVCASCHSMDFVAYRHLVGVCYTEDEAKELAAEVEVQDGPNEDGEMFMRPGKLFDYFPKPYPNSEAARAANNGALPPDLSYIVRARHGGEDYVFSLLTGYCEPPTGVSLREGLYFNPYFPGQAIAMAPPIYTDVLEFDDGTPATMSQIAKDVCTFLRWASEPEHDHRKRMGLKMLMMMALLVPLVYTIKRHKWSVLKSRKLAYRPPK
UniProt P0DMU8: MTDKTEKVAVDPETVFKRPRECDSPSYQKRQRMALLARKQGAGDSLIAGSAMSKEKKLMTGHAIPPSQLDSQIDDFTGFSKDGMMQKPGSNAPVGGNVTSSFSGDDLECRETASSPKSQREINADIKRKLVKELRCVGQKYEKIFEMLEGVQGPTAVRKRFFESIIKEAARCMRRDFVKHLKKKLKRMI
UniProt Q9BQA9: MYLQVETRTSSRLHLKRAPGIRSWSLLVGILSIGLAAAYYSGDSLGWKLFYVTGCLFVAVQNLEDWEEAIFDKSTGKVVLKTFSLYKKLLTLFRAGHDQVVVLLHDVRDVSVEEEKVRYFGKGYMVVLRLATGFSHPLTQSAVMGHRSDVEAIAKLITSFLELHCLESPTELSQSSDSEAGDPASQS
UniProt P00387: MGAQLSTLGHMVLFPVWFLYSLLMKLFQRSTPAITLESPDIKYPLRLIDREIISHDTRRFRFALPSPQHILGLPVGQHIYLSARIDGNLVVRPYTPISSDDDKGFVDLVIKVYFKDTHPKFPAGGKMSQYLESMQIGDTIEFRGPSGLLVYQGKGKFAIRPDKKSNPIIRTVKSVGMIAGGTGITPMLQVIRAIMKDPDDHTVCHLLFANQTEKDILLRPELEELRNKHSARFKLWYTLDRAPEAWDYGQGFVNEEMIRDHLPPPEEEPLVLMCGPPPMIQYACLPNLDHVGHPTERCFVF
UniProt P21291: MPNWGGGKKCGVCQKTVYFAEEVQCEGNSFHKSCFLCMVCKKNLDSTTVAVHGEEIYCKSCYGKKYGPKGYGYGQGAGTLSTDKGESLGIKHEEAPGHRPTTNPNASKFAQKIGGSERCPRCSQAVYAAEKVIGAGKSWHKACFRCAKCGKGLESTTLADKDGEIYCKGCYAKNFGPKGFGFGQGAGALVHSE
UniProt P07108: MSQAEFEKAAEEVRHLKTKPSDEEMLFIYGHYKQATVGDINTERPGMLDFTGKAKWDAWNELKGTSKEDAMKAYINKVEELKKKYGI
UniProt P09668: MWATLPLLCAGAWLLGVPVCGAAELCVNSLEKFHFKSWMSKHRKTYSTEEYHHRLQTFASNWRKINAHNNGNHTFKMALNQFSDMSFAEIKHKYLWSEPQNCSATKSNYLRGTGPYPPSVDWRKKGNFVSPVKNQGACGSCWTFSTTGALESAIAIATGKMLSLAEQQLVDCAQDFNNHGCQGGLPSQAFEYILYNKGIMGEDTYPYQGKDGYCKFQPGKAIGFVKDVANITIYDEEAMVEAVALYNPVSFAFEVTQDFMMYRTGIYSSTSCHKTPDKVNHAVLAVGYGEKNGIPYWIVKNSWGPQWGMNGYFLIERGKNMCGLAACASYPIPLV
UniProt Q96EP5: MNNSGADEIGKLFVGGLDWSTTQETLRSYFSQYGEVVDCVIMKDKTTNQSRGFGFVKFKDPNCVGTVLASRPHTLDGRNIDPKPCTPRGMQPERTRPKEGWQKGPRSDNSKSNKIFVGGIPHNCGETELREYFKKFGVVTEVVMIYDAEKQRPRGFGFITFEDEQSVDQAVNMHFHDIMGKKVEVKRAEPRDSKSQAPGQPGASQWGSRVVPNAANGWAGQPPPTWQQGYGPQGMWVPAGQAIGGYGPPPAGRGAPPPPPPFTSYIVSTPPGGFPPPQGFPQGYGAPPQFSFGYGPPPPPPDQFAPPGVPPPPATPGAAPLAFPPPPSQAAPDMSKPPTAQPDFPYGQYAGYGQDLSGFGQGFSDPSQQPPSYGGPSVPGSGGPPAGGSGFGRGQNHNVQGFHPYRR
UniProt P01034: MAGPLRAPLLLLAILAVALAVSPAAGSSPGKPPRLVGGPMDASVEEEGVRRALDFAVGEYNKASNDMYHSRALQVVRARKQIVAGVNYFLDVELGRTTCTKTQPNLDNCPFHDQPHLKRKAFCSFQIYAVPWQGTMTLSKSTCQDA
UniProt Q8NCG7: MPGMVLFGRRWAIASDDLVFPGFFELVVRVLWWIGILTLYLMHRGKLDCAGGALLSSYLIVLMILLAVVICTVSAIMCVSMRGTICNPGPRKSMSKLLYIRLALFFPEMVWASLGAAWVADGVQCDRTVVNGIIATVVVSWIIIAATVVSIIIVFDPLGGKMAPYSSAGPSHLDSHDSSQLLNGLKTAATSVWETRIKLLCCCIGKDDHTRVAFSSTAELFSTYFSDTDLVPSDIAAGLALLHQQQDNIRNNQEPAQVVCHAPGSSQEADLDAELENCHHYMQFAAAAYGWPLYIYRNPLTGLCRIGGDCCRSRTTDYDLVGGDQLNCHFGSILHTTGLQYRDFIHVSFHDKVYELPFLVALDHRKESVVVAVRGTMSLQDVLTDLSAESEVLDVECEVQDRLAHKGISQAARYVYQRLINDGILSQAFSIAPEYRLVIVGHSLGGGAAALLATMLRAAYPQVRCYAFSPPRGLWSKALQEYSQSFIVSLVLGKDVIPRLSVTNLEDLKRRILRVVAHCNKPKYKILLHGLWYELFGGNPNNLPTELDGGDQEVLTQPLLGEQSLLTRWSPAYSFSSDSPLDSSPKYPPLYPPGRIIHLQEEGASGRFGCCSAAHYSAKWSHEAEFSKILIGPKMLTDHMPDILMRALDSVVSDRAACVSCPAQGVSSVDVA
UniProt P11182, whole entry, looked up: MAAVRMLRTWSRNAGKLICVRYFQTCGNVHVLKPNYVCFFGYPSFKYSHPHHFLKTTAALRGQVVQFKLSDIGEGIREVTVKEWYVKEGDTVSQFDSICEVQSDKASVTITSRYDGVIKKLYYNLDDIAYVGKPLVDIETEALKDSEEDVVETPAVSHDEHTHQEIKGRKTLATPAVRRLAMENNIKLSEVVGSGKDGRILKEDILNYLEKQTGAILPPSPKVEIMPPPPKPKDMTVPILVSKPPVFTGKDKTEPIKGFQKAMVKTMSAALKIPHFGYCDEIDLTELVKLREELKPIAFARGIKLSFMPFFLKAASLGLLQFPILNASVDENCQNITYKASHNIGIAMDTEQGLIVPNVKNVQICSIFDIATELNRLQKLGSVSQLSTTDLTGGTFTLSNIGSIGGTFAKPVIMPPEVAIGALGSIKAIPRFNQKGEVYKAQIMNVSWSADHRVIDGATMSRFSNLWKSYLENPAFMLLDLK
UniProt Q96GG9: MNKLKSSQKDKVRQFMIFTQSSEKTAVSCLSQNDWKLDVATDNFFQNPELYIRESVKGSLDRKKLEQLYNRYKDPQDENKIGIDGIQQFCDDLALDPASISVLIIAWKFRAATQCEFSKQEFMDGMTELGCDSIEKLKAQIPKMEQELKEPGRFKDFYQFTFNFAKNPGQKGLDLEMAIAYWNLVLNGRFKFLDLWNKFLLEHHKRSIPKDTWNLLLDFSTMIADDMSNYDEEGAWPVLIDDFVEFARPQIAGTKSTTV

[1] = compound: C/C(=N\NC(=O)C1=CC(=CC=C1)S(=O)(=O)N2CCOCC2)/C3=C(C=CC(=C3)Cl)O
Procedure, shortened: as §1

[2] = compound: C1=CC(=C(C=C1Cl)C2=NC3=NC=CN=C3C(=N2)NC4=CC=NC=C4)F
Procedure, shortened: as §1

[3] = compound: C1=CC(=CC=C1C2=NC3=C(N2)C=C(C=C3)C(=O)N)OC4=CC=C(C=C4)Cl
Procedure, shortened: as §1

[4] = compound: C1=CC2=C(C=CC(=C2)/C=C\3/C(=O)NC(=NCC4=CC=CS4)S3)N=C1
Procedure, shortened: as §1

[5] = compound: C1=CC2=NC=CN=C2C=C1/C=C/3\C(=O)NC(=O)S3
Procedure, shortened: as §1

[6] = compound: C1=CC=C(C=C1)C2=NC(=C(N2)C3=CC=NC=C3)C4=CC(=C(C=C4)Cl)O
Procedure, shortened: as §1

[7] = compound: C1=CC=C2C(=C1)C3=NNC4=CC=CC(=C43)C2=O
Procedure, shortened: as §1

[8] = compound: C1CCN(C1)C(=O)NC2=CC=CC(=C2)NC3=NC=C(C(=N3)NCCC4=CN=CN4)Br
Procedure, shortened: as §1

[9] = compound: C1CN(CCC1(CC2=CC=C(C=C2)Cl)N)C3=NC=NC4=C3C=CN4
Procedure, shortened: as §1

IRAK-1-4 Inhibitor I = compound: C1COCCN1CCN2C3=CC=CC=C3N=C2NC(=O)C4=CC(=CC=C4)[N+](=O)[O-] [IRAK-1-4 Inhibitor I]
Procedure, shortened: as §1

ibrutinib = compound: C=CC(=O)N1CCC[C@@H](n2nc(-c3ccc(Oc4ccccc4)cc3)c3c(N)ncnc32)C1 [ibrutinib]
Procedure, shortened: as §1

[10] = compound: CC(=O)c1cnc2ccc(-c3cc(Cl)c(O)c(Cl)c3)nc2c1N[C@H]1CC[C@H](CN(C)C)CC1
Procedure, shortened: as §1

ralimetinib = compound: CC(C)(C)Cn1c(N)nc2ccc(-c3[nH]c(C(C)(C)C)nc3-c3ccc(F)cc3)nc21 [ralimetinib]
Procedure, shortened: as §1

[11] = compound: CC(C)(O)CC(=O)NCCn1ccc2ncnc(Nc3ccc(Oc4cccc(C(F)(F)F)c4)c(Cl)c3)c21
Procedure, shortened: as §1

[12] = compound: CC(C)C1=C2N=C(C=C(N2N=C1)NCC3=CC=CC=C3)NCCCCCCN
Procedure, shortened: as §1

[13] = compound: CC(C)C[C@@H](C=O)NC(=O)[C@H](CC(C)C)NC(=O)[C@H](CC(C)C)NC(=O)OCc1ccccc1
Procedure, shortened: as §1

pinometostat = compound: CC(C)N(C[C@H]1O[C@@H](n2cnc3c(N)ncnc32)[C@H](O)[C@@H]1O)[C@H]1C[C@@H](CCc2nc3cc(C(C)(C)C)ccc3[nH]2)C1 [pinometostat]
Procedure, shortened: as §1

[14] = compound: CC1=C(C2=C(C=C1)C(=O)C3=CC=CC=C3N2CCCN)C
Procedure, shortened: as §1

[15] = compound: CC1=C(C(CC(=O)N1)C2=CC=C(C=C2)C(F)(F)F)C(=O)NC3=C(C=C4C(=C3)C=NN4)F
Procedure, shortened: as §1

| Target | log2 fold change (erlotinib) | log2 fold change [1] | log2 fold change [2] | log2 fold change [3] | log2 fold change [4] | log2 fold change [5] | log2 fold change [6] | log2 fold change [7] | log2 fold change [8] | log2 fold change [9] | log2 fold change (IRAK-1-4 Inhibitor I) | log2 fold change (ibrutinib) | log2 fold change [10] | log2 fold change (ralimetinib) | log2 fold change [11] | log2 fold change [12] | log2 fold change [13] | log2 fold change (pinometostat) | log2 fold change [14] | log2 fold change [15] |
| --- | --- | --- | --- | --- | --- | --- | --- | --- | --- | --- | --- | --- | --- | --- | --- | --- | --- | --- | --- | --- |
| CTSL (UniProt P07711) | inactive: -0.005 | inactive: -0.173 | inactive: -0.036 | inactive: -0.022 | inactive: -0.203 | inactive: 0.019 | inactive: -0.002 | inactive: -0.041 | inactive: -0.023 | inactive: 0.005 | inactive: 0.068 | inactive: 0.009 | inactive: 0.099 | inactive: 0.022 | inactive: -0.014 | active: -0.412 | inactive: 0.098 | inactive: -0.006 | inactive: -0.031 |  |
| CUL5 (UniProt Q93034) | inactive: 0.013 | inactive: 0.013 | inactive: 0.054 | inactive: 0.002 | inactive: 0.03 | inactive: 0.022 | inactive: 0.023 | inactive: -0.009 | inactive: 0.002 | inactive: 0.029 | inactive: 0.017 | inactive: -0.002 | inactive: -0.013 | inactive: -0.037 | inactive: -0.054 | inactive: 0.054 | inactive: -0.018 | inactive: -0.05 | inactive: 0.007 | inactive: 0.003 |
| CTTN (UniProt Q14247) | inactive: -0.013 | inactive: -0.004 | inactive: 0 | inactive: -0.035 | inactive: 0.029 | inactive: 0.017 | inactive: 0 | inactive: -0.015 | inactive: 0.015 | inactive: 0.008 | inactive: 0.064 | inactive: 0.001 | inactive: 0.024 | inactive: -0.012 | inactive: 0.017 | inactive: 0.069 | inactive: -0.006 | inactive: -0.019 | inactive: 0.035 | inactive: -0.007 |
| CYC1 (UniProt P08574) | inactive: -0.036 | inactive: 0.048 | inactive: 0.023 | inactive: 0.042 | inactive: 0.026 | inactive: 0.023 | inactive: -0.007 | inactive: -0.003 | inactive: 0.013 | inactive: -0.004 | inactive: 0.015 | inactive: 0.041 | inactive: -0.029 | inactive: -0.038 | inactive: 0.009 | inactive: 0.008 | inactive: -0.01 | inactive: -0.057 | inactive: 0.043 | inactive: 0.003 |
| CT45A5 (UniProt P0DMU8) | inactive: -0.081 | inactive: -0.116 | inactive: -0.198 | inactive: 0.035 | inactive: -0.059 | inactive: 0.015 | inactive: 0.101 | inactive: 0.027 | inactive: 0.065 | inactive: -0.097 | inactive: -0.121 | inactive: -0.032 | inactive: 0.051 | inactive: 0.16 | inactive: 0.055 | inactive: 0.06 | inactive: 0.045 | inactive: 0.103 | inactive: -0.089 | inactive: 0.009 |
| CYBC1 (UniProt Q9BQA9) | inactive: 0.015 | inactive: 0.04 | inactive: 0.06 | inactive: 0.016 | inactive: -0.003 | inactive: 0.05 | inactive: 0 | inactive: -0.003 | inactive: 0.016 | inactive: 0.096 | inactive: 0.021 | inactive: -0.058 | inactive: 0.005 | inactive: -0.03 | inactive: -0.009 | inactive: -0.079 | inactive: -0.011 | inactive: -0.101 | inactive: -0.024 | inactive: 0.038 |
| CYB5R3 isoform 3 (UniProt P00387) | inactive: 0.024 | inactive: 0.017 | inactive: 0.039 | inactive: -0.039 | inactive: 0.038 | inactive: 0.013 | inactive: -0.008 | inactive: -0.025 | inactive: 0.045 | inactive: 0.01 | inactive: 0.016 | inactive: 0.011 | inactive: -0.014 | inactive: -0.07 | inactive: 0.007 | inactive: 0.035 | inactive: -0.008 | inactive: -0.009 | inactive: -0.008 | inactive: 0.018 |
| CSRP1 (UniProt P21291) | inactive: 0.081 | inactive: -0.039 | inactive: 0.053 | inactive: -0.024 | inactive: -0.006 | inactive: 0.026 | inactive: 0.029 | inactive: -0.014 | inactive: -0.02 | inactive: 0.055 | inactive: 0.041 | inactive: 0.025 | inactive: 0.038 | inactive: 0.005 | inactive: 0.017 | inactive: 0.06 | inactive: -0.059 | inactive: -0.055 | inactive: 0.018 | inactive: 0.023 |
| DBI isoform 5 (UniProt P07108) | inactive: -0.038 | inactive: -0.035 | inactive: 0.187 | inactive: -0.005 | inactive: 0.051 | inactive: 0.002 | inactive: -0.023 | inactive: 0.023 | inactive: 0.003 | inactive: -0.01 | inactive: -0.056 | inactive: 0.041 | inactive: -0.017 | inactive: -0.167 | inactive: -0.003 | inactive: 0.1 | inactive: -0.034 | inactive: -0.08 | inactive: 0.191 | inactive: 0.068 |
| CTSH (UniProt P09668) | inactive: 0.015 | inactive: -0.054 | inactive: 0.052 | inactive: 0 | inactive: -0.062 | inactive: 0.048 | inactive: 0.022 | inactive: -0.011 | inactive: 0.047 | inactive: 0.057 | inactive: 0.009 | inactive: 0.034 | inactive: 0.005 | inactive: 0.104 | inactive: 0.005 | inactive: -0.142 | inactive: -0.016 | inactive: -0.06 | inactive: -0.043 |  |
| DAZAP1 (UniProt Q96EP5) | inactive: -0.032 | inactive: -0.042 | inactive: -0.047 | inactive: 0.024 | inactive: 0.042 | inactive: 0.015 | inactive: -0.001 | inactive: -0.004 | inactive: 0.015 | inactive: -0.015 | inactive: -0.052 | inactive: 0.068 | inactive: 0.016 | inactive: 0.003 | inactive: 0.092 | inactive: 0.084 | inactive: 0.005 | inactive: -0.035 | inactive: 0.208 | inactive: -0.033 |
| CST3 (UniProt P01034) | inactive: -0.138 | inactive: -0.028 | inactive: 0.095 | inactive: -0.033 | inactive: -0.043 | inactive: 0.038 | inactive: -0.001 | inactive: -0.071 | inactive: 0.013 | inactive: 0.08 | inactive: -0.041 | inactive: 0.026 | inactive: 0.049 | inactive: 0.039 | inactive: 0.261 | inactive: 0.14 | inactive: -0.016 | inactive: -0.011 | inactive: -0.135 | inactive: 0.002 |
| CYB5B, A0A499FJ32 | inactive: -0.039 | inactive: -0.079 | inactive: 0.002 | inactive: 0.024 | inactive: 0.099 | inactive: -0.009 | inactive: 0.003 | inactive: -0.065 | inactive: -0.042 | inactive: 0.049 | inactive: 0.028 | inactive: -0.004 | inactive: -0.026 | inactive: -0.081 | inactive: -0.01 | inactive: 0.046 | inactive: -0.018 | inactive: -0.079 | inactive: 0.119 | inactive: -0.126 |
| DAGLB (UniProt Q8NCG7) | inactive: -0.045 | inactive: 0.051 | inactive: -0.127 | inactive: 0.012 | inactive: 0.059 | inactive: 0.01 | inactive: 0.042 | inactive: -0.034 | inactive: 0.002 | inactive: 0.031 | inactive: 0.029 | inactive: 0.051 | inactive: 0.005 | inactive: 0.032 | inactive: -0.006 | inactive: 0.089 | inactive: 0.017 | inactive: 0.007 | inactive: -0.037 | inactive: -0.007 |
| DBT (UniProt P11182) | inactive: -0.041 | inactive: -0.019 | inactive: -0.021 | inactive: 0.049 | inactive: -0.03 | inactive: 0.038 | inactive: 0.099 | inactive: -0.01 | inactive: -0.006 | inactive: -0.065 | inactive: -0.004 | inactive: 0.019 | inactive: 0.021 | inactive: 0.109 | inactive: 0.006 | inactive: 0.027 | inactive: 0.023 | inactive: 0.002 | active: 0.352 |  |
| DCUN1D1 (UniProt Q96GG9) | inactive: -0.038 | inactive: 0.052 | inactive: 0.041 | inactive: -0.009 | inactive: 0.015 | inactive: 0.001 | inactive: 0.021 | inactive: -0.014 | inactive: -0.017 | inactive: 0.024 | inactive: 0.031 | inactive: 0.016 | inactive: -0.06 | inactive: -0.047 | inactive: -0.002 | inactive: -0.061 | inactive: -0.022 | inactive: -0.035 | inactive: 0.018 |  |

Two entries from above, comma-delimited:
Target,log2 fold change (erlotinib),log2 fold change [1],log2 fold change [2],log2 fold change [3],log2 fold change [4],log2 fold change [5],log2 fold change [6],log2 fold change [7],log2 fold change [8],log2 fold change [9],log2 fold change (IRAK-1-4 Inhibitor I),log2 fold change (ibrutinib),log2 fold change [10],log2 fold change (ralimetinib),log2 fold change [11],log2 fold change [12],log2 fold change [13],log2 fold change (pinometostat),log2 fold change [14],log2 fold change [15]
DAGLB (UniProt Q8NCG7),inactive: -0.045,inactive: 0.051,inactive: -0.127,inactive: 0.012,inactive: 0.059,inactive: 0.01,inactive: 0.042,inactive: -0.034,inactive: 0.002,inactive: 0.031,inactive: 0.029,inactive: 0.051,inactive: 0.005,inactive: 0.032,inactive: -0.006,inactive: 0.089,inactive: 0.017,inactive: 0.007,inactive: -0.037,inactive: -0.007
DBT (UniProt P11182),inactive: -0.041,inactive: -0.019,inactive: -0.021,inactive: 0.049,inactive: -0.03,inactive: 0.038,inactive: 0.099,inactive: -0.01,inactive: -0.006,inactive: -0.065,inactive: -0.004,inactive: 0.019,inactive: 0.021,inactive: 0.109,inactive: 0.006,inactive: 0.027,inactive: 0.023,inactive: 0.002,active: 0.352,

From the supplement of paper PMC10849652
